# Numbering of substitutions follows the chain as printed. For some of these results: The comparison behind a weaker result is the experiment's own reference, which may not be listed here. Protein sequences can lack the tags named with them. For some of these results: The exact form of at least one protein or probe is not confirmed. For some of these results: At least one verdict was read from the data and is not stated in words by the source.
# Key:
# Assay in all cases: EMSA
# [1] = molecular target: T1, SDN1 2FA F318A,F356A (Arabidopsis thaliana) (UniProt A3KPE8); conditions: no Mg2+, EMSA: 50 mM Tris pH 8.0, 100 mM NaCl, 1 mM DTT, 2 nM RNA, on ice 30 min, 8% native PAGE in 0.5x TBE, recombinant protein, residues 2-409, protein details: His-SUMO tag removed
# T1 sequence (looked up): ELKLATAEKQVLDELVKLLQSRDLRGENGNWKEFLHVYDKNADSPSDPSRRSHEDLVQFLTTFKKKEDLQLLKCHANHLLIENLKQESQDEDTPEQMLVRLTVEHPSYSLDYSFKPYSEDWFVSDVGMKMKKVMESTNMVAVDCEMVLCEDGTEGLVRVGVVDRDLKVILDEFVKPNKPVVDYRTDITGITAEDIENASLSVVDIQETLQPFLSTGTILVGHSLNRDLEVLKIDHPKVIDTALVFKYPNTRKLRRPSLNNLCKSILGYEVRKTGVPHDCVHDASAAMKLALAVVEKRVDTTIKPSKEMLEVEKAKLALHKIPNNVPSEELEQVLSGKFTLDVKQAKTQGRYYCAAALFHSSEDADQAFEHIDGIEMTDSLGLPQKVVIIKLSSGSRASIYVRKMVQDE
# [2] = molecular target: T2, SDN1 F318A (Arabidopsis thaliana) (UniProt A3KPE8); conditions: no Mg2+, EMSA: 50 mM Tris pH 8.0, 100 mM NaCl, 1 mM DTT, 2 nM RNA, on ice 30 min, 8% native PAGE in 0.5x TBE, recombinant protein, residues 2-409, protein details: His-SUMO tag removed, label: 5' 32P
# T2 sequence (looked up): T1 sequence (looked up) with A355F
# [3] = molecular target: T3, SDN1 wild type (Arabidopsis thaliana) (UniProt A3KPE8); conditions: no Mg2+, EMSA: 50 mM Tris pH 8.0, 100 mM NaCl, 1 mM DTT, 2 nM RNA, on ice 30 min, 8% native PAGE in 0.5x TBE, recombinant protein, residues 2-409, protein details: His-SUMO tag removed, label: 5' 32P
# T3 sequence (looked up): T1 sequence (looked up) with A317F, A355F
Sequence,binding result ([1]; label: 5' 32P on miR166 strand),binding result ([1]; label: 5' 32P),binding result [2],binding result [3]
UCGGACCAGGCUUCAUCCCCC / GAUUCCCCUGAAGCUUGGUCCGGAUUA [miR166:T6],binds more weakly,–,–,–
UCGGACCAGGCUUCAUCCCCC [miR166],–,binds more weakly,binds more weakly,binds
